Data published in the supplement of paper PMC10849652.
The list shows a part of the results.

Chains of the proteins cited; added tags and fusions are not shown. Lines headed by an entry give the natural chain unless they say otherwise; changes in a name come on top.
UniProt Q15042: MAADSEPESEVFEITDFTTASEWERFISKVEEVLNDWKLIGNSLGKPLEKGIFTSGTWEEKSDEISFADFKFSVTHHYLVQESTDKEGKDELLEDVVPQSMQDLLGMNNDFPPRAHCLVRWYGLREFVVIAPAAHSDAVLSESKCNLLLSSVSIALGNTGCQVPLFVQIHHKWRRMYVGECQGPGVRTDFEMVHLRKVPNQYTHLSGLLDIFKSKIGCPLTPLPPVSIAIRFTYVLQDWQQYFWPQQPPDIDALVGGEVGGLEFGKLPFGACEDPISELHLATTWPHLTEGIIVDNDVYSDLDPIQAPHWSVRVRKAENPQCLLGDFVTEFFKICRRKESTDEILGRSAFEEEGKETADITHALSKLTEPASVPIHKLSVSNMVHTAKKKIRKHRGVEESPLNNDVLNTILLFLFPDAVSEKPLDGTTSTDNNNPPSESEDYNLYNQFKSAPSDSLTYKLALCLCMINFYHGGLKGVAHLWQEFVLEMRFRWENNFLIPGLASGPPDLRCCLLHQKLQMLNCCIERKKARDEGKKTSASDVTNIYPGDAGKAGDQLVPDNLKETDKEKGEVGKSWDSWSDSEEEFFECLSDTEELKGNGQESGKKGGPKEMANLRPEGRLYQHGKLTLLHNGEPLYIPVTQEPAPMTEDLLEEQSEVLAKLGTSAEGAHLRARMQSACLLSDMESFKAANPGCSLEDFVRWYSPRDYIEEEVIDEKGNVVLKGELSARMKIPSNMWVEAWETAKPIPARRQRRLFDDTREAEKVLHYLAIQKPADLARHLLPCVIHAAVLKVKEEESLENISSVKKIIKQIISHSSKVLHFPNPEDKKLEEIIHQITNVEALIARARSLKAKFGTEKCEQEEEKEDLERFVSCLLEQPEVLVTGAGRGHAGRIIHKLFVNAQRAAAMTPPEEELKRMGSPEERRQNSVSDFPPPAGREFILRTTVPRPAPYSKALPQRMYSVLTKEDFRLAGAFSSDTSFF
UniProt Q86U06: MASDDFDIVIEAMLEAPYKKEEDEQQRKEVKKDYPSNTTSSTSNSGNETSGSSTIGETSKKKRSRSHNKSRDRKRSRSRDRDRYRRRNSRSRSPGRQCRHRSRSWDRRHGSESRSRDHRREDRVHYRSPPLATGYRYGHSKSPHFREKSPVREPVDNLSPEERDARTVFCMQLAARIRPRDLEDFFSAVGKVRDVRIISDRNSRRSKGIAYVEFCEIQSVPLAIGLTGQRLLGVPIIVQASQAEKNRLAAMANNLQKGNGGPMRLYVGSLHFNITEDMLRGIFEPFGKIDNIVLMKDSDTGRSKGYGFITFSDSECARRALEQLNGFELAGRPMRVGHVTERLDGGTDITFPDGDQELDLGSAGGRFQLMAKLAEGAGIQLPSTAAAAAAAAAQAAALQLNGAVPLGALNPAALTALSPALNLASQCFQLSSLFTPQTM
UniProt Q9NTZ6: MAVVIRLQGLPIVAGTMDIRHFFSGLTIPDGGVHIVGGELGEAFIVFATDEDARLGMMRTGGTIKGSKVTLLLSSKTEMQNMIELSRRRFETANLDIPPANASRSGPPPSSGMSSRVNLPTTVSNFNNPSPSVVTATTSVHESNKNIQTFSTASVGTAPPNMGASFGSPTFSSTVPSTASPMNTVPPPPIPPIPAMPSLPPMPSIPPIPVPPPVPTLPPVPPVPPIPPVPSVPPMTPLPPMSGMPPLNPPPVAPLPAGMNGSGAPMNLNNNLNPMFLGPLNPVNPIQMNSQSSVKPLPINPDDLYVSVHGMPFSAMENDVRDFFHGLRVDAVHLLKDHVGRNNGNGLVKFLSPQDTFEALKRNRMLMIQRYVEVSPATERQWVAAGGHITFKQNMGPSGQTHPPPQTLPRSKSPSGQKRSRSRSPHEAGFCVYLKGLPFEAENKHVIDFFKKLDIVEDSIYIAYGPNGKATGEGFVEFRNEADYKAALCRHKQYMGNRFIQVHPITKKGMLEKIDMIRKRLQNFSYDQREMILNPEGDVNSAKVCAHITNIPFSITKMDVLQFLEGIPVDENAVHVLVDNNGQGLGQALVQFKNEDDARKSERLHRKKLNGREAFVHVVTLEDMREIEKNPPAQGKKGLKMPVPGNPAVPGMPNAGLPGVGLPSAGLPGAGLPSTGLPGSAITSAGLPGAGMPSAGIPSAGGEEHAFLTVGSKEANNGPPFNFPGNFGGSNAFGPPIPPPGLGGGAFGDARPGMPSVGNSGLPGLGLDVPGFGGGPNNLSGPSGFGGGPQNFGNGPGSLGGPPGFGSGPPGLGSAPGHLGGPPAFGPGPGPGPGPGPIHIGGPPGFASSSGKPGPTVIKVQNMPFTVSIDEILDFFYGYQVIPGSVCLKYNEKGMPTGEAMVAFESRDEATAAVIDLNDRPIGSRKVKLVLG
UniProt Q92930: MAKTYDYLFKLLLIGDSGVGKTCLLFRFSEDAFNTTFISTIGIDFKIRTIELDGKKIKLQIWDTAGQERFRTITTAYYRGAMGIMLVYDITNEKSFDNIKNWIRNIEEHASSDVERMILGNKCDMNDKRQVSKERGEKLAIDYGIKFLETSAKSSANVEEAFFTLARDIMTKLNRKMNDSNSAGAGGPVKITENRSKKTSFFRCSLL
UniProt P61006: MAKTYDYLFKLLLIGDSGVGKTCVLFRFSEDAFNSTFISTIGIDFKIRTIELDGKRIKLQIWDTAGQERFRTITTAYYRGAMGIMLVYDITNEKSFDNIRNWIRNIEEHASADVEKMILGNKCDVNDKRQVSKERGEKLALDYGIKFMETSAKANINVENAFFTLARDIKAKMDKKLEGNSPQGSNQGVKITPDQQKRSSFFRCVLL
UniProt Q9NRW1: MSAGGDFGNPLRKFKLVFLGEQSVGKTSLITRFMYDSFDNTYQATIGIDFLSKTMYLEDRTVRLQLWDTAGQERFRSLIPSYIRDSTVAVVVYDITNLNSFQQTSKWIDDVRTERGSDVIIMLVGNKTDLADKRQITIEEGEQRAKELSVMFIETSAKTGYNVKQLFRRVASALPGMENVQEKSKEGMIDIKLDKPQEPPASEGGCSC
UniProt Q15283: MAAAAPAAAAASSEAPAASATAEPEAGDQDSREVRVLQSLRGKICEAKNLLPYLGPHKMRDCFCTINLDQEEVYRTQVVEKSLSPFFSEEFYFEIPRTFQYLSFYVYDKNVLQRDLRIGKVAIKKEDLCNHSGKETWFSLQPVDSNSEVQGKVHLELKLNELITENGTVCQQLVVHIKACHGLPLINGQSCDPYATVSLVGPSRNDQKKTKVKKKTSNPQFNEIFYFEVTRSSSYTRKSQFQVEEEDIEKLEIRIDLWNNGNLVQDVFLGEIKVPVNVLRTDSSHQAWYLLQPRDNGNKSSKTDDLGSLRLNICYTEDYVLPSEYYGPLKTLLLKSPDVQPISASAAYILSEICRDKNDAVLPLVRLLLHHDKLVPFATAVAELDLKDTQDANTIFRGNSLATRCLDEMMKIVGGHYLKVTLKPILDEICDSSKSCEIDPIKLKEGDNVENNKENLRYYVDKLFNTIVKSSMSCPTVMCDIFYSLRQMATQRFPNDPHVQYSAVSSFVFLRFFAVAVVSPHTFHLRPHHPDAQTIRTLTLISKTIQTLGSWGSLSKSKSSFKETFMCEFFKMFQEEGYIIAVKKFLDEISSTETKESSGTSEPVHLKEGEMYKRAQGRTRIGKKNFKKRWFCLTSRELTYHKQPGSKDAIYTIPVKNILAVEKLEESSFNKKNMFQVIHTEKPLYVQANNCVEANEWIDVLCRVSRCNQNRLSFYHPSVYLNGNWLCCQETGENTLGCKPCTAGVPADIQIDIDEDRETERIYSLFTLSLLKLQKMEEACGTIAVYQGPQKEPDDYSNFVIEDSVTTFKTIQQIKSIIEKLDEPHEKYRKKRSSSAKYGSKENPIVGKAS
UniProt Q9NS91, whole entry, looked up: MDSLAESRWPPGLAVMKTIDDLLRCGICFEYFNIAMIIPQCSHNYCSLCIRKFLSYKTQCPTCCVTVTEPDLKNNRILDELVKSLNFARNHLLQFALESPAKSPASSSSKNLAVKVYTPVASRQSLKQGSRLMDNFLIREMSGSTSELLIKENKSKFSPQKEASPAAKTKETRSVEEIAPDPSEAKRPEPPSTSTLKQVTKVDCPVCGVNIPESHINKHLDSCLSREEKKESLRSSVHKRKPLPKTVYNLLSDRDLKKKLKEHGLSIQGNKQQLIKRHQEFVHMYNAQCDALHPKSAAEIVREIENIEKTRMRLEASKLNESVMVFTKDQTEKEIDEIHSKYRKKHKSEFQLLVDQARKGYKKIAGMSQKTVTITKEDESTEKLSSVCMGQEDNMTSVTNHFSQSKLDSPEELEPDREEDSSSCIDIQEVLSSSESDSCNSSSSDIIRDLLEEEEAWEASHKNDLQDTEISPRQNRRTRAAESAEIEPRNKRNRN
UniProt P54727: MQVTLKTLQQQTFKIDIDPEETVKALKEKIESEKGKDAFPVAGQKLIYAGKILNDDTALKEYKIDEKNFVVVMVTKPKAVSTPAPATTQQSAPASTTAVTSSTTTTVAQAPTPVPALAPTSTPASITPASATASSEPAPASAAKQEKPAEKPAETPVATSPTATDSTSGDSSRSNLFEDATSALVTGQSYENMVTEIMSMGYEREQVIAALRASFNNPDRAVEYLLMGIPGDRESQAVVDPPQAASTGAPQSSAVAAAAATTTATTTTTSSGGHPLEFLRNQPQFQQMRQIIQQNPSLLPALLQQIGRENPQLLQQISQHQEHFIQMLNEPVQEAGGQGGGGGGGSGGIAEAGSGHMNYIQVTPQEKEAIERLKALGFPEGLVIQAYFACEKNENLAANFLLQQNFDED
UniProt Q3YEC7: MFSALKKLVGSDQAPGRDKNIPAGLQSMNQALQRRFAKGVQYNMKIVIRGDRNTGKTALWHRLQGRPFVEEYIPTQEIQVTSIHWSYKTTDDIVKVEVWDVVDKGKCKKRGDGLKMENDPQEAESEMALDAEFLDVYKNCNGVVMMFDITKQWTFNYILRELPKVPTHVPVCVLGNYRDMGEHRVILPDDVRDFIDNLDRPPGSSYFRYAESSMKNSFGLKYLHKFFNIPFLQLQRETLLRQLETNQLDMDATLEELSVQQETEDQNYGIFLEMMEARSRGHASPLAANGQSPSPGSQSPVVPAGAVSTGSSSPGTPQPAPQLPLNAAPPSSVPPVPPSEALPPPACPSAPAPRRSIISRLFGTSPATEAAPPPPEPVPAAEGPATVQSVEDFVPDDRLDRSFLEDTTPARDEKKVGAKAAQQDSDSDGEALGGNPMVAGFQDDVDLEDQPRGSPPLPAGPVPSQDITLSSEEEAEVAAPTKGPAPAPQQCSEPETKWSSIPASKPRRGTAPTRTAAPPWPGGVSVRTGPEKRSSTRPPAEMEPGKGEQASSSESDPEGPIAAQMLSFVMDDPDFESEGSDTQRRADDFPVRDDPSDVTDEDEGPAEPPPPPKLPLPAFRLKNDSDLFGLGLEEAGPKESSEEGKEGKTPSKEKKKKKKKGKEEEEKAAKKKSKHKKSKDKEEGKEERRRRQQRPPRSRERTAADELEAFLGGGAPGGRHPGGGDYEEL
UniProt Q9P0K7: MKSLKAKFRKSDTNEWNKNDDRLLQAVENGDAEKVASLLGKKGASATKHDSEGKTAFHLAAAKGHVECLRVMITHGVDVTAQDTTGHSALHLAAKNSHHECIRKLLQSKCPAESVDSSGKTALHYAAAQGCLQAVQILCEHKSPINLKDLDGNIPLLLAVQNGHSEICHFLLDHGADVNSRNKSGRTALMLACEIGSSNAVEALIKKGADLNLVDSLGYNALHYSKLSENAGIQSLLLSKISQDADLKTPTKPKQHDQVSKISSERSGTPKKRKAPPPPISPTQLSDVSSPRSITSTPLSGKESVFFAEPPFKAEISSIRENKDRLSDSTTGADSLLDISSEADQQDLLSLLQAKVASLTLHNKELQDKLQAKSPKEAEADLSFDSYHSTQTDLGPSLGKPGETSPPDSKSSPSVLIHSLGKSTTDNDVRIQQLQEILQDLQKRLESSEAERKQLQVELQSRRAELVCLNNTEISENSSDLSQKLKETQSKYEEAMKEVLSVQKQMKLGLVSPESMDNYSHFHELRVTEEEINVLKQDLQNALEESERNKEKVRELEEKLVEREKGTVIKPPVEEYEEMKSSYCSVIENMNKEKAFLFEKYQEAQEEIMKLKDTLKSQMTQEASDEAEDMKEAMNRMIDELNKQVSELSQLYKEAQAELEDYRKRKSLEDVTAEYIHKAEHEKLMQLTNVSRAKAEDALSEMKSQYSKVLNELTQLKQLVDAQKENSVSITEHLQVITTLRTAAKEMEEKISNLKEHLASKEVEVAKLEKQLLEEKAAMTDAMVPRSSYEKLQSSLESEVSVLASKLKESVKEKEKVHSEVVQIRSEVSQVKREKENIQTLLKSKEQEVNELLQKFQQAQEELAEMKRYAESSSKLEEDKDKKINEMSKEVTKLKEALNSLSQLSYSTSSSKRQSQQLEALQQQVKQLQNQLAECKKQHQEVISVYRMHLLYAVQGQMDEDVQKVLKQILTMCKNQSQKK

Tests used:
Experiment in all cases: log2 fold change, soluble protein after heating vs DMSO (PISA); higher = thermal stabilisation; K562 cells, 10 uM, 30 min; active = over 0.2 and 3.5 SD of the protein, either way, in both replicates (recomputed)
saracatinib = compound: CN1CCN(CCOc2cc(OC3CCOCC3)c3c(Nc4c(Cl)ccc5c4OCO5)ncnc3c2)CC1 [saracatinib]
Outline: (§1)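 K562 cells at 2×10^6 cells/mL were treated with 10 μM compound for 30 min. Aliquots were heated for 3 min across 48°C-58°C, pooled, and extracted in PBS with 0.5% NP-40 at 4°C; soluble protein was the supernatant after 21,000xg for 90 min. Soluble protein was quantified by TMTpro 16plex LC-MS/MS with channel sums equalised, and reported as log2 fold change in thermal stability against DMSO controls, with values from duplicates.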

sotrastaurin = compound: CN1CCN(c2nc(C3=C(c4c[nH]c5ccccc45)C(=O)NC3=O)c3ccccc3n2)CC1 [sotrastaurin]
Outline: as §1

alvocidib = compound: CN1CC[C@H](c2c(O)cc(O)c3c(=O)cc(-c4ccccc4Cl)oc23)[C@H](O)C1 [alvocidib]
Outline: as §1

Tubastatin A = compound: CN1CCc2c(c3ccccc3n2Cc2ccc(C(=O)NO)cc2)C1 [Tubastatin A]
Outline: as §1

[1] = compound: CNC(=O)C1=CC=CC=C1NC2=NC(=NC=C2Cl)NC3=C(C=C(C=C3)N4CCOCC4)OC
Outline: as §1

defactinib = compound: CNC(=O)c1ccc(Nc2ncc(C(F)(F)F)c(NCc3nccnc3N(C)S(C)(=O)=O)n2)cc1 [defactinib]
Outline: as §1

rucaparib = compound: CNCc1ccc(-c2[nH]c3cc(F)cc4c3c2CCNC4=O)cc1 [rucaparib]
Outline: as §1

[2] = compound: CNc1nc(-c2ccc3c(N)n[nH]c3c2)cc(N2C[C@@H](C(=O)NC3CCCCC3)CC[C@H]2C)n1
Outline: as §1

encorafenib = compound: COC(=O)N[C@@H](C)CNc1nccc(-c2cn(C(C)C)nc2-c2cc(Cl)cc(NS(C)(=O)=O)c2F)n1 [encorafenib]
Outline: as §1

[3] = compound: COC(=O)[C@H](CCSC)NC(=O)C1=C(C=C(C=C1)NC[C@H](CS)N)C2=CC=CC=C2
Outline: as §1

[4] = compound: COC1=CC=C(C=C1)CN2C=CC3=C2C=C(C=C3)C(=O)NO
Outline: as §1

filanesib = compound: CON(C)C(=O)N1N=C(c2cc(F)ccc2F)S[C@@]1(CCCN)c1ccccc1 [filanesib]
Outline: as §1

zotarolimus = compound: CO[C@H]1C[C@@H]2CC[C@@H](C)[C@@](O)(O2)C(=O)C(=O)N2CCCC[C@H]2C(=O)O[C@H]([C@H](C)C[C@@H]2CC[C@H](n3cnnn3)[C@H](OC)C2)CC(=O)[C@H](C)/C=C(\C)[C@@H](O)[C@@H](OC)C(=O)[C@H](C)C[C@H](C)/C=C/C=C/C=C/1C [zotarolimus]
Outline: as §1

idasanutlin = compound: COc1cc(C(=O)O)ccc1NC(=O)[C@@H]1N[C@@H](CC(C)(C)C)[C@](C#N)(c2ccc(Cl)cc2F)[C@H]1c1cccc(Cl)c1F [idasanutlin]
Outline: as §1

alisertib = compound: COc1cc(Nc2ncc3c(n2)-c2ccc(Cl)cc2C(c2c(F)cccc2OC)=NC3)ccc1C(=O)O [alisertib]
Outline: as §1

[5] = compound: COc1cc2nc(-c3cc(F)ccc3O)nc(N[C@@H]3CNC[C@H]3C(C)(C)O)c2cc1OC
Outline: as §1

gefitinib = compound: COc1cc2ncnc(Nc3ccc(F)c(Cl)c3)c2cc1OCCCN1CCOCC1 [gefitinib]
Outline: as §1

[6] = compound: COc1cccc2cc(-c3nc([C@H]4CC[C@H](C(=O)O)CC4)n4ncnc(N)c34)[nH]c12
Outline: as §1

lapatinib = compound: CS(=O)(=O)CCNCc1ccc(-c2ccc3ncnc(Nc4ccc(OCc5cccc(F)c5)c(Cl)c4)c3c2)o1 [lapatinib]
Outline: as §1

pictilisib = compound: CS(=O)(=O)N1CCN(Cc2cc3nc(-c4cccc5[nH]ncc45)nc(N4CCOCC4)c3s2)CC1 [pictilisib]
Outline: as §1

Measured: log2 fold change

RAB3GAP1 (UniProt Q15042)
inactive: saracatinib 0.088 | sotrastaurin -0.186 | alvocidib 0.003 | Tubastatin A 0.039 | [1] -0.025 | defactinib -0.035 | rucaparib 0.207 | [2] -0.007 | encorafenib 0.179 | [3] -0.078 | [4] 0.007 | filanesib 0.051 | zotarolimus 0.049 | idasanutlin 0.01 | alisertib -0.073 | [5] -0.042 | gefitinib 0.051 | [6] -0.099 | lapatinib -0.001 | pictilisib 0.026

RBM23 (UniProt Q86U06)
inactive: saracatinib -0.088 | sotrastaurin 0.002 | alvocidib -0.208 | [1] 0.022 | defactinib -0.117 | [2] -0.353 | [3] 0.048 | filanesib 0.171 | zotarolimus 0.104 | [5] -0.179 | lapatinib 0.215

RALGAPB (UniProt Q86X10)
inactive: saracatinib -0.077 | sotrastaurin 0.002 | alvocidib 0.009 | Tubastatin A 0.146 | rucaparib 0.012 | [2] 0.194 | encorafenib -0.095 | [4] 0.037 | filanesib -0.075 | zotarolimus 0.078 | idasanutlin 0.057 | alisertib 0.016 | [5] 0.08 | gefitinib -0.023 | [6] -0.184 | lapatinib 0.052

RBM12 (UniProt Q9NTZ6)
inactive: saracatinib -0.04 | sotrastaurin -0.12 | Tubastatin A 0.074 | [1] 0.008 | defactinib -0.27 | rucaparib -0.109 | [2] -0.02 | encorafenib 0.061 | [3] -0.052 | [4] 0.112 | filanesib -0.033 | zotarolimus 0.021 | idasanutlin -0.039 | alisertib 0.023 | [5] -0.014 | gefitinib 0.032 | [6] 0.023 | lapatinib -0.012 | pictilisib -0.019

RAPGEF2, A0A2R8YGD3
inactive: saracatinib -0.049 | sotrastaurin -0.041 | alvocidib 0.152 | Tubastatin A 0.065 | [1] -0.003 | defactinib 0.041 | [2] -0.16 | [3] 0.015 | [4] -0.108 | filanesib -0.042 | zotarolimus -0.153 | idasanutlin -0.2 | alisertib 0.372 | [5] 0.017 | [6] -0.025 | lapatinib 0.056 | pictilisib 0.086

RAB8B (UniProt Q92930)
inactive: saracatinib 0.084 | sotrastaurin -0.058 | Tubastatin A -0.054 | [1] 0.006 | defactinib -0.004 | rucaparib -0.014 | [2] 0.056 | encorafenib -0.062 | [3] -0.06 | [4] 0.258 | filanesib -0.076 | zotarolimus 0.045 | idasanutlin -0.017 | alisertib -0.035 | [5] -0.064 | gefitinib 0.021 | [6] -0.076 | lapatinib 0.023 | pictilisib -0.096

RACK1 (UniProt D6RHH4)
inactive: saracatinib -0.28 | sotrastaurin -0.079 | alvocidib 0.165 | Tubastatin A 0.077 | [1] -0.017 | defactinib -0.019 | rucaparib 0.302 | [2] -0.334 | encorafenib -0.095 | [3] -0.06 | filanesib -0.036 | zotarolimus -0.165 | idasanutlin 0.097 | alisertib 1.47 | [5] 0.382 | gefitinib 0.035 | [6] 0.04 | lapatinib -0.198 | pictilisib 0.394

RAB8A (UniProt P61006)
inactive: saracatinib 0.006 | sotrastaurin 0.011 | alvocidib 0 | Tubastatin A -0.018 | [1] -0.046 | defactinib -0.02 | rucaparib 0.044 | [2] -0.014 | encorafenib -0.072 | [3] -0.016 | [4] 0.027 | filanesib -0.031 | zotarolimus 0.051 | idasanutlin -0.034 | alisertib 0.018 | [5] 0.015 | gefitinib 0.012 | [6] 0.032 | lapatinib -0.021 | pictilisib 0.033

RAP1GDS1 isoform 5 (UniProt P52306)
inactive: saracatinib 0.004 | sotrastaurin -0.077 | Tubastatin A -0.01 | [1] 0.006 | defactinib -0.017 | rucaparib -0.006 | [2] -0.024 | encorafenib 0.176 | [3] 0.139 | [4] -0.026 | filanesib -0.019 | zotarolimus 0.022 | idasanutlin -0.023 | alisertib -0.041 | [5] -0.025 | gefitinib 0.066 | [6] -0.072 | lapatinib 0.091 | pictilisib 0.015

RAB6B (UniProt Q9NRW1)
inactive: saracatinib 0.033 | sotrastaurin -0.118 | alvocidib -0.055 | Tubastatin A -0.02 | [1] 0.027 | defactinib -0.034 | rucaparib 0.014 | [2] -0.014 | encorafenib -0.019 | [3] -0.032 | [4] -0.004 | filanesib -0.091 | zotarolimus -0.054 | idasanutlin -0.049 | alisertib -0.057 | [5] 0.093 | gefitinib 0.013 | [6] 0.032 | lapatinib -0.006 | pictilisib 0.044

RASA2 (UniProt Q15283)
inactive: saracatinib -0.022 | sotrastaurin -0.03 | alvocidib 0.253 | defactinib 0.1 | rucaparib -0.029 | [2] 0.122 | encorafenib -0.241 | [3] 0.105 | [4] -0.372 | filanesib -0.062 | zotarolimus -0.221 | idasanutlin 0.233 | alisertib -0.259 | [5] 0.45 | [6] -0.306 | lapatinib -0.37 | pictilisib -0.208

RAD18 (UniProt Q9NS91)
inactive: saracatinib 0.002 | sotrastaurin -0.224 | alvocidib -0.252 | Tubastatin A 0.013 | [1] 0.174 | defactinib -0.153 | [2] -0.047 | [3] -0.021 | [4] -0.086 | filanesib -0.001 | zotarolimus 0.077 | idasanutlin -0.068 | alisertib -0.064 | [5] 0.036 | gefitinib 0.086 | [6] -0.211 | lapatinib 0 | pictilisib 0.114

RAD23B (UniProt P54727)
inactive: saracatinib -0.007 | sotrastaurin 0.016 | alvocidib 0.041 | Tubastatin A -0.017 | [1] -0.032 | defactinib 0.001 | rucaparib -0.057 | [2] -0.038 | encorafenib -0.022 | [3] 0.033 | [4] -0.044 | filanesib -0.011 | zotarolimus 0.023 | idasanutlin -0.006 | alisertib -0.063 | [5] 0.007 | gefitinib 0.004 | [6] 0.062 | lapatinib -0.027 | pictilisib 0.057

RABEP1 (UniProt Q15276)
inactive: saracatinib 0.052 | sotrastaurin 0.019 | alvocidib -0.045 | Tubastatin A 0.023 | [1] -0.002 | defactinib -0.072 | rucaparib -0.007 | [2] 0.025 | encorafenib 0.032 | [3] -0.013 | [4] -0.021 | filanesib 0.002 | zotarolimus 0.034 | idasanutlin -0.013 | alisertib -0.064 | [5] -0.012 | gefitinib 0.035 | [6] -0.003 | lapatinib -0.002 | pictilisib 0.05

RABL6 (UniProt Q3YEC7)
inactive: saracatinib 0.036 | sotrastaurin 0.001 | alvocidib -0.003 | Tubastatin A -0.025 | [1] -0.066 | defactinib -0.017 | rucaparib 0.026 | [2] -0.034 | encorafenib -0.023 | [3] 0.015 | [4] -0.048 | filanesib -0.01 | zotarolimus -0.024 | idasanutlin 0.03 | alisertib -0.043 | [5] 0 | gefitinib 0.032 | [6] 0.009 | lapatinib -0.019 | pictilisib 0.12

RAI14 isoform 2 (UniProt Q9P0K7)
inactive: saracatinib -0.191 | sotrastaurin -0.081 | alvocidib -0.01 | Tubastatin A -0.009 | [1] -0.005 | defactinib -0.223 | [2] -0.06 | [3] -0.233 | filanesib 0.063 | zotarolimus 0.244 | idasanutlin 0.083 | alisertib 0.023 | [5] 0.056 | gefitinib -0.1 | [6] 0.377 | lapatinib -0.001 | pictilisib -0.033

RACK1 (UniProt P63244)
inactive: saracatinib 0.065 | sotrastaurin 0.01 | alvocidib 0.004 | Tubastatin A 0.012 | [1] 0.052 | defactinib 0.022 | rucaparib 0.024 | [2] 0.023 | encorafenib -0.014 | [3] -0.03 | [4] 0.023 | filanesib -0.116 | zotarolimus -0.017 | idasanutlin -0.056 | alisertib -0.052 | [5] 0.063 | gefitinib -0.018 | [6] -0.104 | lapatinib 0.012 | pictilisib -0.081
